Assay results: PMC5794190
Results are given in words; binding and its absence hold for the method and conditions named. Binding seen in cells or lysates may run through a third protein. Some entries that bind do so weakly or less than the wild type. For part of these data: Tags and fused reporters may be left off the sequences shown.

Sequences of proteins named here, by UniProt entry; tags and fusion partners are left off. Residues count along the entry.
UniProt P03186, residues 1-235: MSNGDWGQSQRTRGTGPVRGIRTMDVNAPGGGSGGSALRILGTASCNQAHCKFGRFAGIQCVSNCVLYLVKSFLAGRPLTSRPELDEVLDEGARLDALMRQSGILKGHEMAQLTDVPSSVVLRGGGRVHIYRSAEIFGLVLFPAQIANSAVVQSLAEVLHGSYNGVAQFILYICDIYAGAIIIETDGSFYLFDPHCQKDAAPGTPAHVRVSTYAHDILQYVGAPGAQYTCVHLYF
UniProt Q14258: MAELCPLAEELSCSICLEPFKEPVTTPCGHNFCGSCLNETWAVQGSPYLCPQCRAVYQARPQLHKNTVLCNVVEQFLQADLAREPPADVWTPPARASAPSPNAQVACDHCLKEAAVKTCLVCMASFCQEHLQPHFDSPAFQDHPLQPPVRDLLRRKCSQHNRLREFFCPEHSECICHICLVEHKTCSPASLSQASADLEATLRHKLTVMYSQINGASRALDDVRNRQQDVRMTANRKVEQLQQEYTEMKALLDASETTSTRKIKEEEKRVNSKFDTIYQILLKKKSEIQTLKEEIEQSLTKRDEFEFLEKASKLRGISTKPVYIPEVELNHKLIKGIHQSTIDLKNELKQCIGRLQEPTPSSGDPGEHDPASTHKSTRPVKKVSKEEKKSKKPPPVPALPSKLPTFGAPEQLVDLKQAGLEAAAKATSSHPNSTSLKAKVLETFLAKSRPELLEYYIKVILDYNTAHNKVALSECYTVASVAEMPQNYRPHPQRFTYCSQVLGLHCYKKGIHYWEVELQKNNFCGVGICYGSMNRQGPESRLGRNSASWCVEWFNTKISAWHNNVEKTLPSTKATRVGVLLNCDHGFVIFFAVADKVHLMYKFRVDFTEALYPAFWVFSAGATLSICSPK
UniProt P16785, residues 1-263: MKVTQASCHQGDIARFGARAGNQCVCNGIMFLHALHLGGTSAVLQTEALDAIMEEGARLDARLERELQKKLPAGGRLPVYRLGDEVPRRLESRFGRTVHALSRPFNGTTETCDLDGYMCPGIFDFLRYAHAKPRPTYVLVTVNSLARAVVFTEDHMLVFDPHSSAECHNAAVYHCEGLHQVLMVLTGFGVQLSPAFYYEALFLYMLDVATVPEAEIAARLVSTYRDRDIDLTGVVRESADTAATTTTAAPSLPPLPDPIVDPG
UniProt P10220, residues 1-293: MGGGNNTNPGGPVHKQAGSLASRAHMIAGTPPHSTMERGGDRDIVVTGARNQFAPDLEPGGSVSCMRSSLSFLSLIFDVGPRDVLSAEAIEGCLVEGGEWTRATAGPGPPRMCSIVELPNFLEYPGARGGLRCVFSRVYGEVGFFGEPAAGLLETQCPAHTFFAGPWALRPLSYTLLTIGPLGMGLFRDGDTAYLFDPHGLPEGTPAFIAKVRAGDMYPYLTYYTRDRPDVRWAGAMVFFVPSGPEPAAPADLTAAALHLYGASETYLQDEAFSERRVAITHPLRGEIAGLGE
UniProt P31946: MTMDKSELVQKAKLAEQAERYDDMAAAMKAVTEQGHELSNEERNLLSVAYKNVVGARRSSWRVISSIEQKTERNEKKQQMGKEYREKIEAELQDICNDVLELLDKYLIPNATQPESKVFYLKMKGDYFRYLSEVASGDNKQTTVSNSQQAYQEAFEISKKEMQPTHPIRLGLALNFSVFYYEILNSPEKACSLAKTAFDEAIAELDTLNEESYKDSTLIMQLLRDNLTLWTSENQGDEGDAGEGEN
UniProt P62258: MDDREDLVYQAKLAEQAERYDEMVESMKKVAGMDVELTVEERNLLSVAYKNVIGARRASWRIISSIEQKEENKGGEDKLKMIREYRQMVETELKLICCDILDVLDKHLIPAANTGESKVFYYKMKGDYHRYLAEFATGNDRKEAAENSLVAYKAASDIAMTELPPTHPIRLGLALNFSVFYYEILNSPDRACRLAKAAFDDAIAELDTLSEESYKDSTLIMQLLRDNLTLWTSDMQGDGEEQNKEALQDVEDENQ
UniProt P63104: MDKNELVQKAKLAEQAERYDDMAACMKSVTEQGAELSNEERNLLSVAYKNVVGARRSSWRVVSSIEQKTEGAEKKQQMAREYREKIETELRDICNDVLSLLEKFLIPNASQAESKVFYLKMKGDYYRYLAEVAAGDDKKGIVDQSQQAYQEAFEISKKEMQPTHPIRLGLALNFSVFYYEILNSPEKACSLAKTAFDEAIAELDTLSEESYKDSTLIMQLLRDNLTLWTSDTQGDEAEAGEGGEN

Key:
[1] = biological target: FLAG-BPLF1 (aa 1-235), catalytically active N-terminal domain of BPLF1 (Epstein-Barr virus) (UniProt P03186); assay: co-IP; anti-FLAG agarose on lysates of transfected HeLa, U2OS or HEK293T cells (NP-40 lysis buffer), elution with 3xFLAG peptide, western blot; in Fig 7A with co-transfected HA-TRIM25, in Fig 5C with co-transfected HA- and FLAG-TRIM25
[2] = biological target: TRIM25 ubiquitin ligase (endogenous) (human (endogenous in HeLa, U2OS, HEK293T)) (UniProt Q14258); assay: co-IP; endogenous TRIM25 immunoprecipitated with anti-TRIM25 antibody and protein-G Sepharose from lysates of HeLa cells transfected with FLAG-tagged plasmids, western blot; for RIG-I the cells were co-transfected with GST-2CARD
[3] = biological target: 3xFLAG-HCMV-UL48 (amino acid residues 1-263), N-terminal catalytic domain (HCMV (human cytomegalovirus)) (UniProt P16785); assay: co-IP; anti-FLAG agarose on lysates of transfected HeLa, U2OS or HEK293T cells (NP-40 lysis buffer), elution with 3xFLAG peptide, western blot; in Fig 7A with co-transfected HA-TRIM25, in Fig 5C with co-transfected HA- and FLAG-TRIM25
[4] = biological target: 3xFLAG-tagged HSV-UL36 (amino acid residues 1-293), N-terminal catalytic domain (HSV (herpes simplex virus; type not stated)) (UniProt P10220); assay: as above
[5] = biological target: T1, 3xFLAG-KSHV-ORF64 (amino acid residues 1-205), N-terminal catalytic domain (KSHV) (UniProt Q2HR64); assay: as above
T1 sequence: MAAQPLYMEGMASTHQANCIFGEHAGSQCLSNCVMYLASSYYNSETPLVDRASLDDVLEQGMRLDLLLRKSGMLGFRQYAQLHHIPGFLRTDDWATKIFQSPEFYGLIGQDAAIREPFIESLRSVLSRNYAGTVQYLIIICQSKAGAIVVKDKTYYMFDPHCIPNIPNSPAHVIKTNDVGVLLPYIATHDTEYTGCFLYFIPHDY

| Substance | binding [1] | binding [2] | binding [3] | binding [4] | binding [5] |
| --- | --- | --- | --- | --- | --- |
| 14-3-3β (from UniProt P31946 1-246) | no binding | – | – | – | – |
| 14-3-3ε (from UniProt P62258 1-255) | binds | – | – | – | – |
| 14-3-3ζ (from UniProt P63104 1-245) | binds | – | – | – | – |
| FLAG-BPLF1 (aa 1-235), catalytically active N-terminal domain of BPLF1 (from UniProt P03186 1-235) (domain or fragment) | – | binds | – | – | – |
| HA-tagged TRIM25 (co-expressed with FLAG-tagged TRIM25 in the self-association test) (from UniProt Q14258 1-630) | binds | – | binds | binds | binds |
| TRIM25 ubiquitin ligase (endogenous) (from UniProt Q14258 1-630) | binds | – | binds | binds | binds |
